# The other results are listed elsewhere or left out.
# B1: CBP21 (Serratia marcescens), O83009 (protein)
# chain: MNKTSRTLLSLGLLSAAMFGVSQQANAHGYVESPASRAYQCKLQLNTQCGSVQAEPQSVEGLKGFPQAGPADGHIASADKSTFFELDQQTPTRWNKLNLKTGPNSFTWKLTARHSTTSWRYFITKPNWDASQPLTRASFDLTPFCQFNDGGAIPAAQVTHQCNIPADRSGSHVILAVWDIADTANAFYQAIDVNLSK
# Legend:
# Assay in all cases: glycan array binding signal (z-score within array); higher = stronger binding
# Conditions in all cases: glycan notation: IUPAC condensed, linker removed; mutation: Y54A
# [1] = target: Neu5Ac(a2-3)Gal(b1-3)]Neu5Ac(a2-3)Gal(b1-4)]GlcNAc
# Outline: (§1)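 Negative Z-scores can be read as non-binding. The Z-score is calculated within each array and then averaged across arrays of one protein sequence at different concentrations or buffers and across linkers. Arrays, 3228 in all, were curated from the Consortium for Functional Glycomics database and kept only where the protein sequence was available.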
# Neu5Ac(a2-3)Gal(b1-4)Glc = target: Neu5Ac(a2-3)Gal(b1-4)Glc
# Outline: as §1
# [2] = target: Neu5Ac(a2-3)Gal(b1-4)GlcNAc
# Outline: as §1
# [3] = target: Neu5Ac(a2-3)Gal(b1-4)GlcNAc(b1-2)Man
# Outline: as §1
# [4] = target: Neu5Ac(a2-3)Gal(b1-4)GlcNAc(b1-2)Man(a1-3)[GlcNAc(b1-4)][Neu5Ac(a2-3)Gal(b1-4)GlcNAc(b1-2)Man(a1-6)]Man(b1-4)GlcNAc(b1-4)GlcNAc
# Outline: as §1
# [5] = target: Neu5Ac(a2-3)Gal(b1-4)GlcNAc(b1-2)Man(a1-3)[Neu5Ac(a2-3)Gal(b1-4)GlcNAc(b1-2)Man(a1-6)]Man(b1-4)GlcNAc(b1-4)GlcNAc
# Outline: as §1
# [6] = target: Neu5Ac(a2-3)Gal(b1-4)GlcNAc(b1-2)Man(a1-3)[Neu5Ac(a2-3)Gal(b1-4)GlcNAc(b1-2)Man(a1-6)]Man(b1-4)GlcNAc(b1-4)[Fuc(a1-6)]GlcNAc
# Outline: as §1
# [7] = target: Neu5Ac(a2-3)Gal(b1-4)GlcNAc(b1-2)Man(a1-3)[Neu5Ac(a2-6)Gal(b1-4)GlcNAc(b1-2)Man(a1-6)]Man(b1-4)GlcNAc(b1-4)GlcNAc
# Outline: as §1
# [8] = target: Neu5Ac(a2-3)Gal(b1-4)GlcNAc(b1-2)[Neu5Ac(a2-3)Gal(b1-4)GlcNAc(b1-4)]Man(a1-3)[GlcNAc(b1-4)][Neu5Ac(a2-3)Gal(b1-4)GlcNAc(b1-2)[Neu5Ac(a2-3)Gal(b1-4)GlcNAc(b1-6)]Man(a1-6)]Man(b1-4)GlcNAc(b1-4)GlcNAc
# Outline: as §1
# [9] = target: Neu5Ac(a2-3)Gal(b1-4)GlcNAc(b1-2)[Neu5Ac(a2-3)Gal(b1-4)GlcNAc(b1-4)]Man(a1-3)[GlcNAc(b1-4)][Neu5Ac(a2-3)Gal(b1-4)GlcNAc(b1-4)Man(a1-6)]Man(b1-4)GlcNAc(b1-4)GlcNAc
# Outline: as §1
# [10] = target: Neu5Ac(a2-3)Gal(b1-4)GlcNAc(b1-2)[Neu5Ac(a2-3)Gal(b1-4)GlcNAc(b1-6)]Man(a1-6)[Neu5Ac(a2-3)Gal(b1-4)GlcNAc(b1-2)Man(a1-3)][GlcNAc(b1-4)]Man(b1-4)GlcNAc(b1-4)GlcNAc
# Outline: as §1
# [11] = target: Neu5Ac(a2-3)Gal(b1-4)GlcNAc(b1-3)Gal
# Outline: as §1
# [12] = target: Neu5Ac(a2-3)Gal(b1-4)GlcNAc(b1-3)Gal(b1-3)GlcNAc
# Outline: as §1
# [13] = target: Neu5Ac(a2-3)Gal(b1-4)GlcNAc(b1-3)Gal(b1-4)GlcNAc
# Outline: as §1
# [14] = target: Neu5Ac(a2-3)Gal(b1-4)GlcNAc(b1-3)Gal(b1-4)GlcNAc(b1-2)Man(a1-3)[Neu5Ac(a2-3)Gal(b1-4)GlcNAc(b1-3)Gal(b1-4)GlcNAc(b1-2)Man(a1-6)]Man(b1-4)GlcNAc(b1-4)GlcNAc
# Outline: as §1
# [15] = target: Neu5Ac(a2-3)Gal(b1-4)GlcNAc(b1-3)Gal(b1-4)GlcNAc(b1-3)Gal(b1-4)GlcNAc
# Outline: as §1
# [16] = target: Neu5Ac(a2-3)Gal(b1-4)GlcNAc(b1-3)Gal(b1-4)GlcNAc(b1-3)Gal(b1-4)GlcNAc(b1-2)Man(a1-3)[Neu5Ac(a2-3)Gal(b1-4)GlcNAc(b1-3)Gal(b1-4)GlcNAc(b1-3)Gal(b1-4)GlcNAc(b1-2)Man(a1-6)]GalNAc
# Outline: as §1
# [17] = target: Neu5Ac(a2-3)Gal(b1-4)GlcNAc(b1-3)Gal(b1-4)GlcNAc(b1-3)GalNAc
# Outline: as §1
# [18] = target: Neu5Ac(a2-3)Gal(b1-4)GlcNAc(b1-3)Gal(b1-4)GlcNAc(b1-3)[Neu5Ac(a2-3)Gal(b1-4)GlcNAc(b1-3)Gal(b1-4)GlcNAc(b1-6)]GalNAc
# Outline: as §1
# [19] = target: Neu5Ac(a2-3)Gal(b1-4)GlcNAc(b1-3)Gal(b1-4)GlcNAc(b1-6)[Gal(b1-3)]GalNAc
# Outline: as §1
# [20] = target: Neu5Ac(a2-3)Gal(b1-4)GlcNAc(b1-3)Gal(b1-4)[Fuc(a1-3)]GlcNAc
# Outline: as §1
# [21] = target: Neu5Ac(a2-3)Gal(b1-4)GlcNAc(b1-3)GalNAc
# Outline: as §1
# [22] = target: Neu5Ac(a2-3)Gal(b1-4)GlcNAc(b1-3)[Neu5Ac(a2-3)Gal(b1-4)GlcNAc(b1-6)]GalNAc
# Outline: as §1
# [23] = target: Neu5Ac(a2-3)Gal(b1-4)GlcNAc(b1-6)GalNAc
# Outline: as §1
# [24] = target: Neu5Ac(a2-3)Gal(b1-4)GlcNAc(b1-6)[Gal(b1-3)]GalNAc
# Outline: as §1
# [25] = target: Neu5Ac(a2-3)Gal(b1-4)GlcNAc(b1-6)[Neu5Ac(a2-3)Gal(b1-3)]GalNAc
# Outline: as §1
# [26] = target: Neu5Ac(a2-3)Gal(b1-4)GlcNAc6S
# Outline: as §1
# [27] = target: Neu5Ac(a2-3)Gal(b1-4)[Fuc(a1-3)]GlcNAc
# Outline: as §1
# [28] = target: Neu5Ac(a2-3)Gal(b1-4)[Fuc(a1-3)]GlcNAc(b1-2)Man
# Outline: as §1
# [29] = target: Neu5Ac(a2-3)Gal(b1-4)[Fuc(a1-3)]GlcNAc(b1-3)Gal
# Outline: as §1
# [30] = target: Neu5Ac(a2-3)Gal(b1-4)[Fuc(a1-3)]GlcNAc(b1-3)Gal(b1-4)GlcNAc
# Outline: as §1
# [31] = target: Neu5Ac(a2-3)Gal(b1-4)[Fuc(a1-3)]GlcNAc(b1-3)Gal(b1-4)[Fuc(a1-3)]GlcNAc(b1-3)Gal(b1-4)[Fuc(a1-3)]GlcNAc
# Outline: as §1
# [32] = target: Neu5Ac(a2-3)Gal(b1-4)[Fuc(a1-3)]GlcNAc(b1-3)GalNAc
# Outline: as §1
# [33] = target: Neu5Ac(a2-3)Gal(b1-4)[Fuc(a1-3)]GlcNAc(b1-6)[Gal(b1-3)]GalNAc
# Outline: as §1
# [34] = target: Neu5Ac(a2-3)Gal(b1-4)[Fuc(a1-3)]GlcNAc(b1-6)[Neu5Ac(a2-3)Gal(b1-3)]GalNAc
# Outline: as §1
# [35] = target: Neu5Ac(a2-3)Gal(b1-4)[Fuc(a1-3)]GlcNAc6S
# Outline: as §1
# [36] = target: Neu5Ac(a2-3)Gal6S(b1-4)GlcNAc
# Outline: as §1
# [37] = target: Neu5Ac(a2-3)Gal6S(b1-4)[Fuc(a1-3)]GlcNAc
# Outline: as §1
binder,measurement,setting,value
B1,glycan array binding signal (z-score),[1],0.743
same,glycan array binding signal (z-score),Neu5Ac(a2-3)Gal(b1-4)Glc,0.821
same,glycan array binding signal (z-score),[2],-0.373
same,glycan array binding signal (z-score),[3],-0.035
same,glycan array binding signal (z-score),[4],-0.561
same,glycan array binding signal (z-score),[5],-0.458
same,glycan array binding signal (z-score),[6],0.14
same,glycan array binding signal (z-score),[7],0.681
same,glycan array binding signal (z-score),[8],0.538
same,glycan array binding signal (z-score),[9],-0.017
same,glycan array binding signal (z-score),[10],-0.228
same,glycan array binding signal (z-score),[11],-0.407
same,glycan array binding signal (z-score),[12],1.61
same,glycan array binding signal (z-score),[13],-0.609
same,glycan array binding signal (z-score),[14],-0.666
same,glycan array binding signal (z-score),[15],-0.695
same,glycan array binding signal (z-score),[16],-0.428
same,glycan array binding signal (z-score),[17],-0.163
same,glycan array binding signal (z-score),[18],1.5
same,glycan array binding signal (z-score),[19],-0.494
same,glycan array binding signal (z-score),[20],0.07
same,glycan array binding signal (z-score),[21],3.83
same,glycan array binding signal (z-score),[22],1.31
same,glycan array binding signal (z-score),[23],-0.781
same,glycan array binding signal (z-score),[24],-0.164
same,glycan array binding signal (z-score),[25],-0.744
same,glycan array binding signal (z-score),[26],0.409
same,glycan array binding signal (z-score),[27],-0.628
same,glycan array binding signal (z-score),[28],0.87
same,glycan array binding signal (z-score),[29],-0.143
same,glycan array binding signal (z-score),[30],-0.566
same,glycan array binding signal (z-score),[31],-0.011
same,glycan array binding signal (z-score),[32],0.503
same,glycan array binding signal (z-score),[33],0.002
same,glycan array binding signal (z-score),[34],-0.287
same,glycan array binding signal (z-score),[35],-0.225
same,glycan array binding signal (z-score),[36],4.07
same,glycan array binding signal (z-score),[37],-0.037

# A different layout for some results above.
binder	measurement	setting	value
B1	glycan array binding signal (z-score)	[3]	-0.035
same	glycan array binding signal (z-score)	[4]	-0.561
same	glycan array binding signal (z-score)	[5]	-0.458
same	glycan array binding signal (z-score)	[6]	0.14
same	glycan array binding signal (z-score)	[7]	0.681
same	glycan array binding signal (z-score)	[8]	0.538
same	glycan array binding signal (z-score)	[9]	-0.017
same	glycan array binding signal (z-score)	[10]	-0.228
same	glycan array binding signal (z-score)	[11]	-0.407
